In PubChem BioAssay AID504467 (National Center for Advancing Translational Sciences (NCATS), 2011):
In all, about 330,000 compounds went through this assay and about 7,700 (2.3%) were called active. This list was built around the results that the source calls inconclusive (neither active nor inactive); the mix of calls is not that of the screen. Calls follow the shape of the dose curve; as a rule, active = well fitted inhibition curve with a large enough effect; inconclusive = small, poorly fitted or top-dose-only effect, or effect the other way; inactive = flat fitted curve, though single readings scatter. Potencies of inconclusive entries are doubtful fits and often do not repeat.

Assay: qHTS screen for small molecules that inhibit ELG1-dependent DNA repair in human embryonic kidney (HEK293T) cells expressing luciferase-tagged ELG1; also: nearly all actives have a fitted effect of over 55% in size
Settings: HEK293T ELG1-luciferase reporter, luminescence, 16 h, DNA damage induced by 5-fluorouridine; series mostly up to 46.1 µM
Procedure, shortened: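 DMSO vehicle served as the neutral condition. Each well held 2,000 cells given 5-fluorouridine plus compound; after 16 hr at 37 °C/5% CO2, ONE-Glo was added and luciferase measured 30 min later.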
Potency is read from the fitted curve at half-maximal effect.

SMILES | Potency
Cc1nnc(NC(=O)c2cc3ccccc3o2)s1 | inconclusive: 20.6 µM [activator, partial curve]
CN(CC(=O)Nc1ccc(Cl)c(C(F)(F)F)c1)C(=O)c1cccs1 | inactive
COc1cccc(CNC(=O)CCC2CCCN(C(=O)c3ccc(F)c(Cl)c3)C2)c1 (stereo not given) | inactive
COc1ccc(OCC(O)CN(CCO)CC(O)Cn2ccc3ccccc32)cc1 (stereo not given) | inactive
COc1ccccc1NC(=O)COc1ccc(Br)cc1CNC1CCCC1 | inactive
COc1cc(C(=O)OCc2cccc(OC)c2OC)ccc1OCC(=O)N1CCOCC1 | inconclusive: 11.6 µM [inhibitor, partial curve]
c1ccc(COC(CN2CCCCCC2)CN2CCCCCC2)cc1 | inconclusive: 14.6 µM [inhibitor, partial curve, poor fit]
CC(C)COc1cccc(C(=O)Nc2ccc(CN3CCOCC3)cc2)c1 | inconclusive: 29.1 µM [inhibitor, single point]
CCOC(=O)N1CCN(CCC(=O)c2ccc(Br)cc2)CC1 | inactive
COc1ccc(C(=O)OCC(=O)Nc2ccccc2)cc1[N+](=O)[O-] | inactive
Cc1ccc(S(=O)(=O)N(C)C)cc1NC(=S)NC12CC3CC(CC(C3)C1)C2 | inconclusive: 25.9 µM [inhibitor, single point]
CCCCNC(=S)NNC(=O)c1c(Cl)c(C)nn1C | inactive
COc1ccc(CN(Cc2cccnc2)C(=S)NCCc2ccccc2)cc1OC | inconclusive: 14.1 µM [inhibitor, single point]
O=C(NCC(=O)N1CCN(Cc2ccccc2)CC1)c1cc(Cl)cc([N+](=O)[O-])c1 | inconclusive: 5.17 µM [inhibitor, partial curve]
O=c1ccc2c(-c3ccccc3S(=O)(=O)O)c3ccc(O)c(O)c3oc-2c1O | active: 35.5 µM
c1ccc2c(c1)nc(NC1CCCCC1)c1nncn12 | inconclusive: 16.4 µM [activator, partial curve, poor fit]
Cc1cc(C)cc(NS(=O)(=O)c2ccc3[nH]c(=O)ccc3c2)c1 | inactive
Cc1cccc(Oc2ccc(N)cc2)c1 | inconclusive: 18.4 µM [activator, partial curve, poor fit]
N#C/C(=C\c1sc(N2CCOCC2)nc1-c1ccccc1)C(=O)Nc1cccc2ccccc12 | inconclusive: 3.66 µM [inhibitor, full curve]
Cc1cc(/C=N/NC(N)=S)c(C)n1-c1ccc(Cl)cc1 | inactive
Cc1ccc(C(=O)CC(=O)c2ccccc2)cc1 | inconclusive: 20.6 µM [activator, partial curve]
COc1cc(C(=O)OCC(=O)Nc2c(F)c(F)c(F)c(F)c2F)cc(OC)c1OC | active: 25.9 µM
O=C(Nc1ccccc1C(=O)NCC1CCCO1)c1ccc(Cl)cc1 (stereo not given) | inactive

SMILES | Potency
CC(=O)CCc1oc2ccc([N+](=O)[O-])cc2c1-c1ccc(C)o1 | inconclusive: 23.1 µM [inhibitor, single point]
O=C(C1=C[C@H](c2csc3ccccc23)C[C@H](OCCCCO)O1)N1CCN(Cc2ccccc2)CC1 | inactive
Cc1[nH]c(C)c(S(=O)(=O)N2CCN(c3ccccc3)CC2)c1C(=O)N1CCCCC1 | inconclusive: 6.51 µM [inhibitor, single point]
O=C(C1=C(O)C(=O)N(CC2CCCO2)C1c1ccccc1[N+](=O)[O-])c1ccco1 (stereo not given) | inconclusive: 3.66 µM [inhibitor, single point]
Cc1ccc(-c2nnc(SCC(=O)Nc3nccs3)n2N)cc1 | inconclusive: 16.4 µM [activator, single point]
CCOc1ccccc1NC(=O)c1cc(=O)[nH]c2ccc(S(=O)(=O)N3CCOCC3)cc12 | inactive
O=C(c1ccccc1F)N1CCN(Cc2cccc(Cl)c2)CC1 | inconclusive: 5.17 µM [inhibitor, partial curve, poor fit]
C/C(=N\NC(=S)NC1CCCCC1)c1cccc(Br)c1 | inconclusive: 29.1 µM [activator, partial curve, poor fit]
Cc1nnc(SCC(=O)Nc2cc(S(=O)(=O)N3CCOCC3)ccc2C)s1 | inconclusive: 29.1 µM [activator, partial curve, poor fit]
Cc1onc(-c2c(F)cccc2Cl)c1C(=O)Nc1cccc(S(=O)(=O)N2CCOCC2)c1 | inconclusive: 18.3 µM [inhibitor, partial curve]
Cn1c(C(=O)Nc2ccc3c(c2)OCO3)cc2sccc21 | inconclusive: 1.78 µM [activator, full curve]
CCOc1ccc(OCC)c(NC(=O)CN(C)S(=O)(=O)c2cccc3nsnc23)c1 | active: 16.4 µM
COc1cc(NC(=O)c2cccs2)ccc1NC(=O)c1cc2ccccc2o1 | inconclusive: 11.6 µM [activator, partial curve, poor fit]
Cn1cc(CN2CCc3c([nH]c4ccccc34)C2C(C)(C)C)cn1 (stereo not given) | inactive
NC(=O)c1c(NC(=O)C2CCCO2)sc2c1CCCCC2 (stereo not given) | inconclusive: 16.4 µM [activator, partial curve]
O=C(Nc1cccnc1N1CCOCC1)c1cc2ccccc2oc1=O | inconclusive: 20.6 µM [activator, single point]
CC(C)Cc1ccc(C(=O)NCCOc2ccccc2)o1 | inconclusive: 1.83 µM [activator, full curve]
O=C(Nc1ccc(-c2csc(Nc3cccc(C(F)(F)F)c3)n2)cc1)c1cccc(C(F)(F)F)c1 | active: 10.3 µM
COc1ccc(OC)c(NC(=O)c2cccnc2Sc2cc(C)ccc2C)c1 | inconclusive: 20.6 µM [inhibitor, single point]
O=S(=O)(Nc1nc2ccccc2nc1Cl)c1cccc(C(F)(F)F)c1 | inactive
COc1ccc(Nc2nc(N)nc(CSc3nccn3C)n2)cc1 | inconclusive: 20.6 µM [activator, partial curve]
CCOc1ccccc1NS(=O)(=O)c1c(C)noc1C | inconclusive: 20.6 µM [activator, partial curve]

Given with tabs: three of the compounds above
SMILES	Potency
Cc1cccc(Oc2ccc(N)cc2)c1	inconclusive: 18.4 µM [activator, partial curve, poor fit]
N#C/C(=C\c1sc(N2CCOCC2)nc1-c1ccccc1)C(=O)Nc1cccc2ccccc12	inconclusive: 3.66 µM [inhibitor, full curve]
Cc1cc(/C=N/NC(N)=S)c(C)n1-c1ccc(Cl)cc1	inactive
